{"sequences": {"note": "Chains of the proteins cited; added tags and fusions are not shown.", "UniProt P35222": "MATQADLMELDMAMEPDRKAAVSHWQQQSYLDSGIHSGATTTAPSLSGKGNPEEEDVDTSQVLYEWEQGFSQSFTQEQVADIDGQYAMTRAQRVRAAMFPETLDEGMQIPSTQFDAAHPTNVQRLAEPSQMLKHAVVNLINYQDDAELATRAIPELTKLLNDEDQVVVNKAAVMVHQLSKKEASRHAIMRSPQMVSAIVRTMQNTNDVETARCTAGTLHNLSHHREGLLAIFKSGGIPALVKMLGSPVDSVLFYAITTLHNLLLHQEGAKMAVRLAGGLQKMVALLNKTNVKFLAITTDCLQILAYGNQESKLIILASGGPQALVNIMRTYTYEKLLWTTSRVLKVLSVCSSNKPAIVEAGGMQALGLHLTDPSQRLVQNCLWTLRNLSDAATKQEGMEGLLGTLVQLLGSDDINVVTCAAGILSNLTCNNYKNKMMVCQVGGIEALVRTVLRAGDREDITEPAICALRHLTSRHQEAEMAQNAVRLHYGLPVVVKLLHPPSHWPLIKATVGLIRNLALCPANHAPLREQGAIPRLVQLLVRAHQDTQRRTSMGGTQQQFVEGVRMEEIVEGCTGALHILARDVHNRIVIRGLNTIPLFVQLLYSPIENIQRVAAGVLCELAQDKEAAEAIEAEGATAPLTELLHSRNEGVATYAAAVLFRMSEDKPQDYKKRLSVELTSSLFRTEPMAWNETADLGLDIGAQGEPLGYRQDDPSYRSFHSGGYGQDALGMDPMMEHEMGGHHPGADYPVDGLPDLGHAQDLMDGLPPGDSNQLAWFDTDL", "UniProt P01106": "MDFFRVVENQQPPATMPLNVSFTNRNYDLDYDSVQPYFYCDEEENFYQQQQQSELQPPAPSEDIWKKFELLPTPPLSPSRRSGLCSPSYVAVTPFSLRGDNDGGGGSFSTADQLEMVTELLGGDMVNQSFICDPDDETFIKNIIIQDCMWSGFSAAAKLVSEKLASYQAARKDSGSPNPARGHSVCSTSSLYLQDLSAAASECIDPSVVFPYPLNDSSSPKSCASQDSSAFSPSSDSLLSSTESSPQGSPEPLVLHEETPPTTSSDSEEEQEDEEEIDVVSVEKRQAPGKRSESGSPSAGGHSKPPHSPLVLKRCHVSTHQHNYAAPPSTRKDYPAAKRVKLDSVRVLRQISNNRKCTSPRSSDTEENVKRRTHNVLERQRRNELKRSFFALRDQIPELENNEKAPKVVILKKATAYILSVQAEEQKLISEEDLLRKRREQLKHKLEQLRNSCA", "UniProt O15169": "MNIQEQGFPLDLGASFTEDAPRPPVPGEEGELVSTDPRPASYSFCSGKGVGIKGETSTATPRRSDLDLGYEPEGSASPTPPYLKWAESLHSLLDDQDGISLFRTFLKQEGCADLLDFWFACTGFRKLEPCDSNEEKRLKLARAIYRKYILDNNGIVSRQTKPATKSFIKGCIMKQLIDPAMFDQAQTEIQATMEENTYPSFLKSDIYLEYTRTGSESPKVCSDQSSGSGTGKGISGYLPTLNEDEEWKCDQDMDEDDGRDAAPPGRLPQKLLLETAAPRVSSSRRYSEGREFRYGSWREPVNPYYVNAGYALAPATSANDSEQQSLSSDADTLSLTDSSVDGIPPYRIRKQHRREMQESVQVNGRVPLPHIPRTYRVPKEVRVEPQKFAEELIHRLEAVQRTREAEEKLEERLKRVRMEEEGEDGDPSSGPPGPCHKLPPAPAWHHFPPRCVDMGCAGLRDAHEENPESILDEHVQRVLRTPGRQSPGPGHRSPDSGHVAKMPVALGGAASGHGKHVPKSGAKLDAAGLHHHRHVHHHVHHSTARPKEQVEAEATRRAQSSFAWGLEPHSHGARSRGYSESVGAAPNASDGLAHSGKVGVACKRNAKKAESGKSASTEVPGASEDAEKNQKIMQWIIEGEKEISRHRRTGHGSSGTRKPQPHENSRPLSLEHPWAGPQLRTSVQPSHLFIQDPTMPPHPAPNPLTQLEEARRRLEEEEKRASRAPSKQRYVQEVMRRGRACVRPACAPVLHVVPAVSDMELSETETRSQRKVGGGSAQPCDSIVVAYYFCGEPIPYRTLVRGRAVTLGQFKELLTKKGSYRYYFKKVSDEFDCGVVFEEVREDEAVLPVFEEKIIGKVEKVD", "UniProt Q9UJU2": "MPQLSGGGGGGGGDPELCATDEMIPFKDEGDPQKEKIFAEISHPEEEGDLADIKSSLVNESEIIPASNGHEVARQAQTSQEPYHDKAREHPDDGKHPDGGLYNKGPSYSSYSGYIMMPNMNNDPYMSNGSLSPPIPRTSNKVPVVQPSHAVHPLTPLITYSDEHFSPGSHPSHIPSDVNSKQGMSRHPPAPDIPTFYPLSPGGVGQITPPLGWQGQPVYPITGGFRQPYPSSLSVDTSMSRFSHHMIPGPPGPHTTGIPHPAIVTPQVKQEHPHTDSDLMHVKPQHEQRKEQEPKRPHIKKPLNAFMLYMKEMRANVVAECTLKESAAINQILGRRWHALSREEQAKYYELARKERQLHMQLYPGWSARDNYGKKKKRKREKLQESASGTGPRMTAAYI"}, "source": "paper PMC4972521", "molecules": {"B1": {"name": "Miz1 (protein, UniProt Q13105 1-803)", "chain": "MDFPQHSQHVLEQLNQQRQLGLLCDCTFVVDGVHFKAHKAVLAACSEYFKMLFVDQKDVVHLDISNAAGLGQVLEFMYTAKLSLSPENVDDVLAVATFLQMQDIITACHALKSLAEPATSPGGNAEALATEGGDKRAKEEKVATSTLSRLEQAGRSTPIGPSRDLKEERGGQAQSAASGAEQTEKADAPREPPPVELKPDPTSGMAAAEAEAALSESSEQEMEVEPARKGEEEQKEQEEQEEEGAGPAEVKEEGSQLENGEAPEENENEESAGTDSGQELGSEARGLRSGTYGDRTESKAYGSVIHKCEDCGKEFTHTGNFKRHIRIHTGEKPFSCRECSKAFSDPAACKAHEKTHSPLKPYGCEECGKSYRLISLLNLHKKRHSGEARYRCEDCGKLFTTSGNLKRHQLVHSGEKPYQCDYCGRSFSDPTSKMRHLETHDTDKEHKCPHCDKKFNQVGNLKAHLKIHIADGPLKCRECGKQFTTSGNLKRHLRIHSGEKPYVCIHCQRQFADPGALQRHVRIHTGEKPCQCVMCGKAFTQASSLIAHVRQHTGEKPYVCERCGKRFVQSSQLANHIRHHDNIRPHKCSVCSKAFVNVGDLSKHIIIHTGEKPYLCDKCGRGFNRVDNLRSHVKTVHQGKAGIKILEPEEGSEVSVVTVDDMVTLATEALAATAVTQLTVVPVGAAVTADETEVLKAEISKAVKQVQEEDPNTHILYACDSCGDKFLDANSLAQHVRIHTAQALVMFQTDADFYQQYGPGGTWPAGQVLQAGELVFRPRDGAEGQPALAETSPTAPECPPPAE"}, "B2": {"name": "TCF3 (protein, UniProt Q9HCS4 1-588)", "chain": "MPQLGGGGGGGGGGSGGGGGSSAGAAGGGDDLGANDELIPFQDEGGEEQEPSSDSASAQRDLDEVKSSLVNESENQSSSSDSEAERRPQPVRDTFQKPRDYFAEVRRPQDSAFFKGPPYPGYPFLMIPDLSSPYLSNGPLSPGGARTYLQMKWPLLDVPSSATVKDTRSPSPAHLSNKVPVVQHPHHMHPLTPLITYSNDHFSPGSPPTHLSPEIDPKTGIPRPPHPSELSPYYPLSPGAVGQIPHPLGWLVPQQGQPMYSLPPGGFRHPYPALAMNASMSSLVSSRFSPHMVAPAHPGLPTSGIPHPAIVSPIVKQEPAPPSLSPAVSVKSPVTVKKEEEKKPHVKKPLNAFMLYMKEMRAKVVAECTLKESAAINQILGRKWHNLSREEQAKYYELARKERQLHSQLYPTWSARDNYGKKKKRKREKQLSQTQSQQQVQEAEGALASKSKKPCVQYLPPEKPCDSPASSHGSMLDSPATPSAALASPAAPAATHSEQAQPLSLTTKPETRAQLALHSAAFLSAKAAASSSGQMGSQPPLLSRPLPLGSMPTALLASPPSFPATLHAHQALPVLQAQPLSLVTKSAH"}}, "key": {"[1]": {"molecular_target": "β-catenin (human (endogenous in AGS and MKN1)) (UniProt P35222)", "experiment": "co-IP; lysates (PBS pH 7.2, 1.0% NP-40, 0.5% sodium deoxycholate, 0.1% SDS, 4 °C) of AGS and MKN1 mock and NKX6.3 stable cells; 1.0 mg protein precipitated with 2.0 μg antibody to β-catenin or GSK3β plus protein A/G-agarose; immunoblot"}, "[2]": {"molecular_target": "c-Myc (human (endogenous in AGS and MKN1)) (UniProt P01106)", "experiment": "co-IP; AGS^Mock and MKN1^Mock cells; c-Myc complex; immunoblot"}, "[3]": {"molecular_target": "c-Myc (human (endogenous in AGS and MKN1)) (UniProt P01106)", "experiment": "co-IP; AGS^NKX6.3 and MKN1^NKX6.3 cells (stable NKX6.3 expression); c-Myc complex; immunoblot"}}, "note": "These are yes or no findings as the source states them, for the method shown. In cells and extracts the contact can be indirect. Some entries that bind do so weakly or less than the wild type.", "data": [{"molecule": "Axin1 (from UniProt O15169 1-862)", "values": [{"measurement": "binding", "setting": "[1]", "value": "binds"}]}, {"molecule": "LEF1 (from UniProt Q9UJU2 1-399)", "values": [{"measurement": "binding", "setting": "[1]", "value": "binds"}]}, {"molecule": "B1", "values": [{"measurement": "binding", "setting": "[2]", "value": "binds"}, {"measurement": "binding", "setting": "[3]", "value": "no binding (condition: in cells stably expressing NKX6.3)"}]}, {"molecule": "B2", "values": [{"measurement": "binding", "setting": "[1]", "value": "binds"}]}]}
